A: 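Methionyl-tRNA synthetase (putative), Leishmania donovani (UniProt E9BF75). Primary screen of methionyl-tRNA synthetase; the read-out is not stated. The test concentration is not given. The values are filed as inhibition. Size under these conditions: about 68,000 compounds, about 24 of them at 50% or above in at least one test.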
B: 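Assay on Mycobacterium tuberculosis, filed only as a heat shock assay from Cornell; the read-out is not stated. The concentration is filed as 10 mM, unlikely as a test dose, so the dose is not known. The record gives no direction; compounds that gave an IC50 in retests scored well above the rest, so higher reads as stronger inhibition. About 69,000 compounds were tested under these conditions; 1.4% (about 930) showed 50% or more at least once.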

Amino acid sequences for entries named in this document (tags omitted).
UniProt E9BF75, entry or part of it: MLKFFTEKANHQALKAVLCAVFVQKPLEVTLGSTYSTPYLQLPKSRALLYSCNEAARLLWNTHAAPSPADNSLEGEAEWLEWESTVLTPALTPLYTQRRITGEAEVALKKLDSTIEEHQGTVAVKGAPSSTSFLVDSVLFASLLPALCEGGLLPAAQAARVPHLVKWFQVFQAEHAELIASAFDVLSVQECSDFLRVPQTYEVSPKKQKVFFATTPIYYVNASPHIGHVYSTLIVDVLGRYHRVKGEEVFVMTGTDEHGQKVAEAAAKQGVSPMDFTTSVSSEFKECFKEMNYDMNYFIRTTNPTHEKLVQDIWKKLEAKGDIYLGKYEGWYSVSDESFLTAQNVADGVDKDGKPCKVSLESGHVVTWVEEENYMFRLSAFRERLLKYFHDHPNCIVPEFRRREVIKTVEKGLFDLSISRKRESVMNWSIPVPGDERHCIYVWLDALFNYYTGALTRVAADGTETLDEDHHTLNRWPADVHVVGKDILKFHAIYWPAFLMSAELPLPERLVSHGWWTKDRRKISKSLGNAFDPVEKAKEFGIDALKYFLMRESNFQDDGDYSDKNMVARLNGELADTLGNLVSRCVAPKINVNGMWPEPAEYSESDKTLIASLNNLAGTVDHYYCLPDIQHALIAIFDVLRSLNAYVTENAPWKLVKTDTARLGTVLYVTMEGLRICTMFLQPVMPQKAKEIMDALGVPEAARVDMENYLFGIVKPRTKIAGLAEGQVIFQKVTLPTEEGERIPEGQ

Results are percentages, as filed. The controls that fix the scale are not given in the record; negative values are as filed. The compounds are a random part of those screened. A dash means the value is not listed here; it may have been measured.

{"structure": "[H][C@]12CCN(Cc3ccc(C)o3)C[C@@]1([H])OCCN(S(C)(=O)=O)C2", "B": -14.21}
{"structure": "COCCN(C)C[C@@H]1CN(c2nc(C)cc(C)n2)C[C@@H]1CO", "A": 16.72, "B": -39.84}
{"structure": "Cc1cc(CN2CCN(CC(O)c3ccc(Cl)cc3)CC2)no1", "stereo": "stereo not drawn", "A": 17.75, "B": -9.239}
{"structure": "Cc1cc(C(=O)N2CCCC2c2noc(C(C)C)n2)c(C)o1", "stereo": "stereo not drawn", "A": 13.65, "B": 37.12}
{"structure": "COCC(=O)NCc1cc(=O)n2c(n1)CN(C)CCC2.O=C(O)C(F)(F)F", "B": 2.895}
{"structure": "COCCN1CCc2ncnc(NC(C)C)c2CC1.O=C(O)C(F)(F)F", "B": -1.499}
{"structure": "COc1ccccc1CC1CCCN(CCC#N)C1", "stereo": "stereo not drawn", "A": 13.89, "B": -19.4}
{"structure": "O=C(NCC1CC1)C1CSCN1S(=O)(=O)c1cccc(F)c1", "stereo": "stereo not drawn", "A": 5.419, "B": -3.511}
{"structure": "CCC[C@H]1CN(CCS(C)(=O)=O)C[C@@H]1NC(=O)c1ccccc1F", "A": 9.924, "B": -14.01}
{"structure": "Cc1ccnc(C(NC(=O)c2ncoc2C)C2CC2)n1", "stereo": "stereo not drawn", "A": -0.7246, "B": -19.83}
{"structure": "O=C(c1ccc(C2CCCN2)s1)N1CCN2CCC1CC2", "stereo": "stereo not drawn", "A": -5.587, "B": -18.67}
{"structure": "CN1CCC(NC(=O)c2cc(Br)cc(Cl)c2O)C1=O", "stereo": "stereo not drawn", "A": 19.05, "B": 7.206}
{"structure": "Cn1cc(CN2CCc3c(cnc(-c4ccccc4)c3C(=O)O)C2)cn1", "A": 12.89}
{"structure": "Cn1cccc1C(=O)N1CC[C@H]2[C@H](CO[C@H]2CNS(C)(=O)=O)C1", "A": 8.889}
{"structure": "OC1(CN2CCOC(CNc3cccnn3)C2)CCCCC1", "stereo": "stereo not drawn", "A": 18.18, "B": 9.895}
{"structure": "O=C(CC1CCCC1)Nc1ccc(-n2cc(Cl)cn2)nc1", "A": 5.758, "B": -8.8}
{"structure": "O=C(O)C1CN(Cc2cccc(-c3ccccn3)c2)CCO1", "stereo": "stereo not drawn", "A": 11.78, "B": -8.551}
{"structure": "CCC(=O)N1CCN(c2cc(-n3cnc(C)c3C)nc(C)n2)CC1", "A": 10.64, "B": -13.39}
{"structure": "Cn1cc(CCC(=O)N2CCN(Cc3ccncc3)CC2)cn1", "A": 14.17, "B": 10.86}
{"structure": "CN1CC2(CCN(c3nc(N)nc4c3CCNC4)CC2)OC1=O", "A": 9.524, "B": -4.307}
{"structure": "O=C(O)C[C@@H]1CCN(C(=O)C2CCCC2)C[C@@H]1CCN1CCCCC1", "A": 15.38, "B": -35.07}
{"structure": "CN(Cc1ccco1)C[C@H]1OC[C@@H]2CCN(Cc3ccncc3)C[C@@H]21", "A": 6.989}
{"structure": "CN(CC(=O)N(CCC#N)c1ccccc1)C1CCc2ccccc21", "stereo": "stereo not drawn", "A": 5.222, "B": -15.48}
{"structure": "Cc1ccc(C(=O)NCC2COCCO2)c(=O)[nH]1", "stereo": "stereo not drawn", "A": 9.355, "B": -1.102}
{"structure": "[H][C@@]12COC[C@@H](CC(=O)N3CCCC3)[C@]1([H])CN(Cc1ccsc1)C2", "B": -2.351}
{"structure": "Cc1nc[nH]c1CN(C)CC1CCCN(CCc2ccc(Cl)cc2)C1", "stereo": "stereo not drawn", "A": 16.26, "B": 30.01}
{"structure": "Cc1n[nH]c(C)c1-c1nccnc1CC1CCN(C(C)C)CC1", "A": 5.085, "B": -25.31}
{"structure": "c1cc(CNCc2ccnc(N3CCOCC3)c2)c2c(c1)OCCCO2", "A": 19.1, "B": -8.067}

3 of the entries, repeated:

structure,A,B
[H][C@]12CCN(Cc3ccc(C)o3)C[C@@]1([H])OCCN(S(C)(=O)=O)C2,-,-14.21%
O=C(O)C[C@@H]1CCN(C(=O)C2CCCC2)C[C@@H]1CCN1CCCCC1,15.38%,-35.07%
Cc1cc(CN2CCN(CC(O)c3ccc(Cl)cc3)CC2)no1 (stereo not drawn),17.75%,-9.239%

The values are deposited in ChEMBL (CHEMBL3988442, “University of Dundee, Small-Polar-MMV Screening Library” (2021)).